Data from the supplement of paper PMC12819154, “High-throughput peptide-centric local stability assay extends protein–ligand identification to membrane proteins, tissues and bacteria” (Nature Structural & Molecular Biology, 2025).
This is one part of the list. Small differences around the control level are noise.

Sequences of proteins named here, by UniProt entry; tags and fusion partners are left off. A change or cut given only in a name is not applied to a line headed by its entry.
UniProt P0CF66: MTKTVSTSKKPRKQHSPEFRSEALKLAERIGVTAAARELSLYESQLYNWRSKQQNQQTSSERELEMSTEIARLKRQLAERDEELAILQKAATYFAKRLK
UniProt P21517: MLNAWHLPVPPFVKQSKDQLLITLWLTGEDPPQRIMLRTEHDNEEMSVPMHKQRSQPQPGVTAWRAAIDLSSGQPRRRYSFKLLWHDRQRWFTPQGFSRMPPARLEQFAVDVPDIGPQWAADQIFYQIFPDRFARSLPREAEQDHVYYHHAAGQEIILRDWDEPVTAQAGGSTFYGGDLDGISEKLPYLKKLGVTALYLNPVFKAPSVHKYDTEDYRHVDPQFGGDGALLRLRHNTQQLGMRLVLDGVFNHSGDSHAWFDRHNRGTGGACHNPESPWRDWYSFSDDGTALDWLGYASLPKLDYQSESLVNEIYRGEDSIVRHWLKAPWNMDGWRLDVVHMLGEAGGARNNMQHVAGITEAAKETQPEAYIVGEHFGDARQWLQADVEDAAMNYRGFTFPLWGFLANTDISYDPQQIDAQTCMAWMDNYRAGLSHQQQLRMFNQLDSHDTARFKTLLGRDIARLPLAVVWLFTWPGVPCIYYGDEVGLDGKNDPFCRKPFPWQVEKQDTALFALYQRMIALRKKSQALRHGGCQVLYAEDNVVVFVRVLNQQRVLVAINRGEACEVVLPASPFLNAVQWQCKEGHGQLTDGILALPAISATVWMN
UniProt P24175: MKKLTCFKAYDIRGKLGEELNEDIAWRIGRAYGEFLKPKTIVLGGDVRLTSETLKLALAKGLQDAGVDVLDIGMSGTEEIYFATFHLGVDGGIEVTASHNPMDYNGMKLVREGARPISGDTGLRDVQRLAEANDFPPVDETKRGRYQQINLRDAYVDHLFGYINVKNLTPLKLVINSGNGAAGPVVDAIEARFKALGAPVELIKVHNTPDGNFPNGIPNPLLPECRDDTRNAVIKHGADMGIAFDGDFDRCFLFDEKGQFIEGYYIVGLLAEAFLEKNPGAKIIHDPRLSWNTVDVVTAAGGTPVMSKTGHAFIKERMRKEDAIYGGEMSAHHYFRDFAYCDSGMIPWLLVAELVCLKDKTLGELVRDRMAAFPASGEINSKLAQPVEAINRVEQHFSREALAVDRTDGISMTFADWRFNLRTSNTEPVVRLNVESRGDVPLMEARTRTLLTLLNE
UniProt P17117: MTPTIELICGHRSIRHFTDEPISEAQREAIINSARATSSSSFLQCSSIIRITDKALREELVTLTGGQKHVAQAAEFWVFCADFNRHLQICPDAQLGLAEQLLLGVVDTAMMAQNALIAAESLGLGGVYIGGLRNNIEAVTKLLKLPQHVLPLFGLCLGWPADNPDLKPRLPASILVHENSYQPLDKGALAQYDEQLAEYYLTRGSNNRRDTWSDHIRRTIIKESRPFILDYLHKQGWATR
UniProt P23865: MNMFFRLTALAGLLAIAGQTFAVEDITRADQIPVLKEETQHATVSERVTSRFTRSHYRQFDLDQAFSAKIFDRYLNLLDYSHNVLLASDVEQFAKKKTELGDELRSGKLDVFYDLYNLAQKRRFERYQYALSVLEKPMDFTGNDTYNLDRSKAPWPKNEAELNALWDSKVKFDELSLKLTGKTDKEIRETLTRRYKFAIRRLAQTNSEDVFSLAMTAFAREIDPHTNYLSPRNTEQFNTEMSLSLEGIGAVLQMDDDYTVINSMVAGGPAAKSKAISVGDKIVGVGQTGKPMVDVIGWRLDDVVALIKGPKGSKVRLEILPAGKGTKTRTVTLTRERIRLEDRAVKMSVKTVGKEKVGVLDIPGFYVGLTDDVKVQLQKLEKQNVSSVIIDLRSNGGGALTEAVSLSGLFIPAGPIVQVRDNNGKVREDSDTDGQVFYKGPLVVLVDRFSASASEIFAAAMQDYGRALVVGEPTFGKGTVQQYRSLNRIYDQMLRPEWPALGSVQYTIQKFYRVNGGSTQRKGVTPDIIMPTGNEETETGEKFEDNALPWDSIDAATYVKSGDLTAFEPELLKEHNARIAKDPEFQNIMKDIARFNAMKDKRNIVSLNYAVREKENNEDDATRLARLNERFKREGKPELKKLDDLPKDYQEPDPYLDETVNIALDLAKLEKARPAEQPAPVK
UniProt P11880: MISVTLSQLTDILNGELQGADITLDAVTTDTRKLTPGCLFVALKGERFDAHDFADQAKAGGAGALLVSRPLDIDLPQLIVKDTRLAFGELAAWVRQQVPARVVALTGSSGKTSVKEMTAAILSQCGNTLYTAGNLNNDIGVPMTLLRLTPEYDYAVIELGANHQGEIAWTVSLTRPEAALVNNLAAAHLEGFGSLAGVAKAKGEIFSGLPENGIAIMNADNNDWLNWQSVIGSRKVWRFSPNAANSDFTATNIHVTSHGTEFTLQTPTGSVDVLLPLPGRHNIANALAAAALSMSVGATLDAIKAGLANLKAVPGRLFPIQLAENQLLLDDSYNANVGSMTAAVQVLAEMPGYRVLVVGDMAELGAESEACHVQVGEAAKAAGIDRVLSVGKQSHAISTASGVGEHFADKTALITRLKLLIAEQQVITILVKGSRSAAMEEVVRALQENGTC
UniProt P21645: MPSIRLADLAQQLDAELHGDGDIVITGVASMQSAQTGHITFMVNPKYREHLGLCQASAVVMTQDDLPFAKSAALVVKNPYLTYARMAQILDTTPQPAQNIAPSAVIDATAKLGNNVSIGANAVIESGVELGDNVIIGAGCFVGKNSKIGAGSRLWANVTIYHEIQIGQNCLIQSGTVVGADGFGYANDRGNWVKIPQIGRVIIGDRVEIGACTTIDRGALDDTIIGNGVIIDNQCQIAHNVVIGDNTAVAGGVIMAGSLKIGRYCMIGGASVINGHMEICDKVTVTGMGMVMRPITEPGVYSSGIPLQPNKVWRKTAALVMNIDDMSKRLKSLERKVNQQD
UniProt P21338: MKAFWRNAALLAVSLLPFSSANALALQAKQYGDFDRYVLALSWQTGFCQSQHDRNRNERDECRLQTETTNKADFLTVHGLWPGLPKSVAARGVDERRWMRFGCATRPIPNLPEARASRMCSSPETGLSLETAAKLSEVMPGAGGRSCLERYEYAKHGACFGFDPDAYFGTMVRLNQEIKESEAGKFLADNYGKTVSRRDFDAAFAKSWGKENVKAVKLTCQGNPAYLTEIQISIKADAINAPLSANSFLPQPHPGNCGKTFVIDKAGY
UniProt P15031: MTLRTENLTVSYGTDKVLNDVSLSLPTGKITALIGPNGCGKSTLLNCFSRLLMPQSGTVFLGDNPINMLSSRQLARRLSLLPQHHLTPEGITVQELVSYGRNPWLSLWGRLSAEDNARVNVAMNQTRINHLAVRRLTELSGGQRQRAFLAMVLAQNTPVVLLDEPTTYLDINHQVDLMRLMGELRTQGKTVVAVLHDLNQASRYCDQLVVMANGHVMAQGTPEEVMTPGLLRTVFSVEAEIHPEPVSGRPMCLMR
UniProt P11557: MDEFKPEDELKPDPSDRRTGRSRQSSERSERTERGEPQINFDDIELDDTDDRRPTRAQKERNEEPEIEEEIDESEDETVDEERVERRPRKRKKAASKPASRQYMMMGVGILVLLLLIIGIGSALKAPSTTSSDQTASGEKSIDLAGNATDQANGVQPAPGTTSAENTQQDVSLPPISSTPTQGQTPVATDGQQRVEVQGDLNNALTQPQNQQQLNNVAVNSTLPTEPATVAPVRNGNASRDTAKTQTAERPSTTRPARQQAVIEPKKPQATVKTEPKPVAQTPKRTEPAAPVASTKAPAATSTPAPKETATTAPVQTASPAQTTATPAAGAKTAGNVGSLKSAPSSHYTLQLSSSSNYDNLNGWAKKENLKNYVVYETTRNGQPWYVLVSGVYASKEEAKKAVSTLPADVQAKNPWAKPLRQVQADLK
UniProt P15033: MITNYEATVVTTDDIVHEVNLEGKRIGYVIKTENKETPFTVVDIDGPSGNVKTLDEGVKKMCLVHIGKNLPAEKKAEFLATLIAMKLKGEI

Compound: CC1(C)S[C@@H]2[C@H](NC(=O)[C@H](N)c3ccccc3)C(=O)N2[C@H]1C(=O)O [ampicillin]
Assay: log2 fold change of tryptic peptide abundance, ligand vs vehicle (limited proteolysis) (log2 ratio); higher = more trypsin-susceptible (destabilized)
Details: ligand concentration: 10 uM; sample: E. coli crude lysate

Question: How did the log2 fold change turn out when “UniProt P0CF66 (peptide sequence: SKQQNQQTSSERELEMSTEIAR, peptide start residue: 51)” was run?
Answer: -0.706

Question: Which log2 fold change does the source give for “UniProt P21517 (peptide sequence: MFNQLDSHDTAR, peptide start residue: 440)” here?
Answer: -0.114

Question: How did the log2 fold change turn out when “UniProt P24175 (peptide sequence: LAQPVEAINRVEQHFSR, peptide start residue: 383)” was run?
Answer: -0.125

Question: Which log2 fold change does the source give for “UniProt P17117 (peptide sequence: ESRPFILDYLHK, peptide start residue: 223)” here?
Answer: 0.212

Question: How did the log2 fold change turn out when “UniProt P23865 (peptide sequence: KTELGDELR, peptide start residue: 97)” was run?
Answer: 0.291

Question: For “MurF (peptide sequence: KLTPGCLFVALK, peptide start residue: 33) (UniProt P11880)”, which log2 fold change is on record?
Answer: -1.22

Question: With “UniProt P21645 (peptide sequence: SAALVVKNPYLTYAR, peptide start residue: 71)” as the target, how does the log2 fold change read?
Answer: 0.21

Question: With “UniProt P21338 (peptide sequence: LSEVMPGAGGR, peptide start residue: 135)” as the target, how does the log2 fold change read?
Answer: 0.261

Question: Which log2 fold change does the source give for “UniProt P15031 (peptide sequence: LTELSGGQR, peptide start residue: 136)” here?
Answer: -0.0979

Question: “UniProt P11557 (peptide sequence: GEPQINFDDIELDDTDDRRPTR, peptide start residue: 35)” was tested. Which log2 fold change did it give?
Answer: 0.184

Question: With “UniProt P15033 (peptide sequence: MCLVHIGK, peptide start residue: 61)” as the target, how does the log2 fold change read?
Answer: -0.221
